Record: PubChem BioAssay AID504764 (Drosophila RNAi Screening Center, 2011)

Purpose: 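Genes whose knock-down alters Notch-dependent transcription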 (primary screen)
Cell system: Drosophila Kc167 cells
Knock-down reagent: long dsRNA against Drosophila genes
Timing: about 5 days (4 days dsRNA, then 24 h after transfection)
Conditions: transfection of constitutively active membrane-tethered Notch lacking the extracellular domain, read 24 h later
Measurement: 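Firefly luciferase from an E(spl)m3 reporter with active Notch, plus control-promoter and uninduced reporter wells for normalisation; unnormalised counts, duplicate wells a and b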
Reading the numbers: induced reporter light, run 1, well a and induced reporter light, run 1, well b: higher = more light from the Notch target reporter with active Notch; control promoter light, run 1, well a and control promoter light, run 1, well b: higher = more light from the viral control promoter (cell number, transfection, viability); uninduced reporter light, run 1, well a: higher = more light from the Notch target reporter without active Notch
Rule for the call: 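Hit if the duplicate-averaged log2 ratio of induced to control-promoter light gives a plate-wise z beyond ±2, or induced to uninduced beyond ±1.8; weak-control or discordant-duplicate wells dropped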
Calls: active = modifier hit (raised or lowered Notch signal); inactive = not a hit
The deposit covers about 22,000 reagents; below is a random part of those with a known target gene and a result. Over the whole deposit, 403 (1.9%) were called active. 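Unnormalised raw counts per well; ratio z-scores behind the hit calls and whether each hit raises or lowers signal are not deposited.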 Unmarked entries are inactive. Reagents against one gene are numbered here. Not given: the amount of reagent.

| target | reagent no. | induced reporter light, run 1, well a | induced reporter light, run 1, well b | control promoter light, run 1, well a | control promoter light, run 1, well b | uninduced reporter light, run 1, well a |
| --- | --- | --- | --- | --- | --- | --- |
| CG8072 | 1 | 2.17e5 | 1.71e5 | 3.26e5 | 2.78e5 | 11265 |
| CG17321 | 1 | 35795 | 40220 | 39320 | 26770 | 3030 |
| gammaTub23C | 1 | 1.27e5 | 1.54e5 | 1.84e5 | 1.93e5 | 12625 |
| TBPH | 1 | 1.48e5 | 1.49e5 | 1.27e5 | 1.48e5 | 13925 |
| CG2061 | 1 | 2.11e5 | 1.88e5 | 2.43e5 | 2.39e5 | 15785 |
| CheA84a | 1 | 1.72e5 | 1.24e5 | 1.48e5 | 1.55e5 | 12145 |
| tweek | 1 | 1.27e5 | 1.59e5 | 1.39e5 | 1.81e5 | 10955 |
| tweek | 2 | 1.09e5 (active) | 1.16e5 | 1.71e5 | 1.69e5 | 8165 |
| tweek | 3 | 1.18e5 | 1.20e5 | 88255 | 85545 | 15188 |
| CG42570 | 1 | 1.67e5 | 2.24e5 | 2.17e5 | 2.58e5 | 16500 |
| dpr13 | 1 | 96085 | 88855 | 93685 | 96710 | 6805 |
| dpr13 | 2 | 73350 | 81975 | 1.00e5 | 1.02e5 | 7350 |
| CG34181 | 1 | 1.68e5 | 1.56e5 | 1.99e5 | 2.11e5 | 9550 |
| dUTPase | 1 | 2.28e5 | 2.09e5 | 1.82e5 | 1.69e5 | 14725 |
| JMJD4 | 1 | 2.19e5 | 2.87e5 | 2.31e5 | 2.00e5 | 16625 |
| Creld | 1 | 1.23e5 | 1.47e5 | 97590 | 67430 | 9415 |
| beta4GalNAcTA | 1 | 1.64e5 | 1.70e5 | 2.34e5 | 2.20e5 | 12342 |
| CG13073 | 1 | 1.67e5 (active) | 1.80e5 | 1.29e5 | 1.19e5 | 9195 |
| RhoGAP15B | 1 | 1.49e5 | 1.06e5 | 1.10e5 | 66265 | 9675 |
| RhoGAP15B | 2 | 65745 | 78565 | 84345 | 60460 | 9230 |
| CG30479 | 1 | 95515 | 1.19e5 | 1.25e5 | 1.35e5 | 9865 |
| Got2 | 1 | 1.96e5 | 2.25e5 | 2.02e5 | 2.21e5 | 18880 |
| CG6329 | 1 | 1.30e5 | 1.06e5 | 1.16e5 | 73585 | 10175 |
| yrt | 1 | 1.44e5 | 1.40e5 | 1.06e5 | 1.04e5 | 10075 |
| CG12446 | 1 | 77425 | 89605 | 75625 | 95690 | 9892 |
| awd | 1 | 1.06e5 | 1.02e5 | 1.41e5 | 2.09e5 | 7570 |
| CG7966 | 1 | 1.65e5 | 1.25e5 | 88585 | 83080 | 11405 |
| CG14632 (retired record) | 1 | 1.25e5 | 1.07e5 | 2.25e5 | 1.81e5 | 8840 |
| CG15200 | 1 | 1.06e5 | 1.22e5 | 2.10e5 | 1.86e5 | 9850 |
| CG1418 | 1 | 1.91e5 | 1.90e5 | 2.99e5 | 2.54e5 | 17455 |
| GstD4 | 1 | 77290 | 81095 | 74815 | 58515 | 4670 |
| Cyp12a4 | 1 | 1.96e5 | 1.72e5 | 1.68e5 | 1.71e5 | 14790 |
| CG15646 | 1 | 58335 | 57925 | 82205 | 50655 | 9640 |
| CG30447 | 1 | 1.18e5 | 1.11e5 | 1.52e5 | 1.56e5 | 8085 |
| CG30496 | 1 | 2.75e5 | 2.34e5 | 2.34e5 | 2.70e5 | 15330 |
| CG4004 | 1 | 2.33e5 | 2.38e5 | 2.75e5 | 2.96e5 | 16825 |
| CG4004 | 2 | 1.51e5 | 1.56e5 | 2.83e5 | 2.86e5 | 10820 |
| Gr5a | 1 | 1.76e5 | 1.29e5 | 1.91e5 | 1.92e5 | 9462 |
| Drgx | 1 | 80165 | 58060 | 55585 | 56085 | 5715 |
| Drgx | 2 | 65520 | 49330 | 74385 | 68045 | 4490 |
| CG14731 | 1 | 49635 | 78170 | 63885 | 47770 | 2530 |

8 of these entries, set out differently.
target	reagent no.	induced reporter light, run 1, well a	induced reporter light, run 1, well b	control promoter light, run 1, well a	control promoter light, run 1, well b	uninduced reporter light, run 1, well a
dpr13	1	96085	88855	93685	96710	6805
dpr13	2	73350	81975	1.00e5	1.02e5	7350
CG34181	1	1.68e5	1.56e5	1.99e5	2.11e5	9550
dUTPase	1	2.28e5	2.09e5	1.82e5	1.69e5	14725
JMJD4	1	2.19e5	2.87e5	2.31e5	2.00e5	16625
Creld	1	1.23e5	1.47e5	97590	67430	9415
beta4GalNAcTA	1	1.64e5	1.70e5	2.34e5	2.20e5	12342
CG13073	1	1.67e5 (active)	1.80e5	1.29e5	1.19e5	9195

The results go on:
| target | reagent no. | induced reporter light, run 1, well a | induced reporter light, run 1, well b | control promoter light, run 1, well a | control promoter light, run 1, well b | uninduced reporter light, run 1, well a |
| --- | --- | --- | --- | --- | --- | --- |
| cu | 1 | 91975 | 1.11e5 | 1.02e5 | 79600 | 5415 |
| cu | 2 | 80885 | 82095 | 56685 | 63560 | 3990 |
| sut1 | 1 | 1.27e5 | 1.29e5 | 1.20e5 | 1.24e5 | 10795 |
| Vha68-1 | 1 | 1.71e5 | 1.74e5 | 1.75e5 | 1.86e5 | 15125 |
| Atg8b | 1 | 2.29e5 | 1.87e5 | 2.15e5 | 2.29e5 | 13982 |
| Cpr65Ea | 1 | 1.71e5 | 2.34e5 | 2.37e5 | 2.57e5 | 12655 |
| Slh | 1 | 49950 | 55245 | 63745 | 33305 | 4715 |
| CG3502 | 1 | 93740 | 90175 | 73545 | 79360 | 6540 |
| Ser8 | 1 | 89320 (active) | 96655 | 86920 | 81555 | 9905 |
| Ugt35E2 | 1 | 86325 | 80735 | 1.01e5 | 70730 | 3395 |
| mav | 1 | 1.35e5 | 1.15e5 | 2.23e5 | 1.99e5 | 8128 |
| Gld | 1 | 77255 | 1.17e5 | 94975 | 89115 | 7382 |
| CG11768 | 1 | 19325 | 18045 | 16445 | 11600 | 3792 |
| Archease | 1 | 1.99e5 | 1.93e5 | 1.83e5 | 1.99e5 | 12155 |
| SpdS | 1 | 77165 | 66530 | 66410 | 61065 | 6815 |
| beat-Ia | 1 | 1.19e5 | 1.48e5 | 1.85e5 | 1.91e5 | 10720 |
| MBD-like | 1 | 74715 | 79550 | 84420 | 65200 | 3432 |
| eIF1 | 1 | 1.04e5 | 1.01e5 | 1.67e5 | 1.18e5 | 5395 |
| Fer2LCH | 1 | 1.34e5 | 1.17e5 | 1.99e5 | 2.20e5 | 12332 |
| CG14893 | 1 | 3.51e5 | 4.37e5 | 2.64e5 | 3.25e5 | 22270 |
| Cpes | 1 | 1.59e5 | 1.38e5 | 1.54e5 | 1.30e5 | 11932 |
| CG42650 | 1 | 1.71e5 | 1.55e5 | 1.51e5 | 1.46e5 | 13315 |
| CG40191 | 1 | 1.23e5 | 1.77e5 | 1.34e5 | 1.35e5 | 10265 |
